Measurements taken from publication PMC5964315.
Results are given in words; binding and its absence hold for the method and conditions named. Binding seen in cells or lysates may run through a third protein. Some entries that bind do so weakly or less than the wild type. For some assays here: Sequences can lack the tags named with a protein.

Protein sequences, listed by entry. Tags and fused reporters are not part of them.
UniProt P42224: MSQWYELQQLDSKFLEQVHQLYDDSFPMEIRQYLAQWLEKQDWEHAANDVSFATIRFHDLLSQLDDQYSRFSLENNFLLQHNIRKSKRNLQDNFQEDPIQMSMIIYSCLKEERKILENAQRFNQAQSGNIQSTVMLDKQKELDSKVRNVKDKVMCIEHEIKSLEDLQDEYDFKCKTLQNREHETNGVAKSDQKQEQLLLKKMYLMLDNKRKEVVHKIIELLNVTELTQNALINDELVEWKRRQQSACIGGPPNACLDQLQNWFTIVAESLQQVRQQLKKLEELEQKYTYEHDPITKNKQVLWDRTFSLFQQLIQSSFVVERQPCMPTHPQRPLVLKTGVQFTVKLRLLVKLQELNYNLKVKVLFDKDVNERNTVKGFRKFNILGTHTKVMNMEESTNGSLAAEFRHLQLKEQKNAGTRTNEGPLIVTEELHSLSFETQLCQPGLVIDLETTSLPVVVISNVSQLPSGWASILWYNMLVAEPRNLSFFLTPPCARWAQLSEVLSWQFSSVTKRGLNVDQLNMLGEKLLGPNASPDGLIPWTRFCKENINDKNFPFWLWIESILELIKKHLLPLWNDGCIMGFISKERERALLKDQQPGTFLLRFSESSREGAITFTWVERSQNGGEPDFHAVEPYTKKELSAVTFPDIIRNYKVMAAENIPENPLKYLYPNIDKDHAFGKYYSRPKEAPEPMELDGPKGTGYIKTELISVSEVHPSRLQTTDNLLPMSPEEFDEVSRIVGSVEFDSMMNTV

T1: CBP-SBP-Intu (mouse) (UniProt Q059U7)
T1 sequence: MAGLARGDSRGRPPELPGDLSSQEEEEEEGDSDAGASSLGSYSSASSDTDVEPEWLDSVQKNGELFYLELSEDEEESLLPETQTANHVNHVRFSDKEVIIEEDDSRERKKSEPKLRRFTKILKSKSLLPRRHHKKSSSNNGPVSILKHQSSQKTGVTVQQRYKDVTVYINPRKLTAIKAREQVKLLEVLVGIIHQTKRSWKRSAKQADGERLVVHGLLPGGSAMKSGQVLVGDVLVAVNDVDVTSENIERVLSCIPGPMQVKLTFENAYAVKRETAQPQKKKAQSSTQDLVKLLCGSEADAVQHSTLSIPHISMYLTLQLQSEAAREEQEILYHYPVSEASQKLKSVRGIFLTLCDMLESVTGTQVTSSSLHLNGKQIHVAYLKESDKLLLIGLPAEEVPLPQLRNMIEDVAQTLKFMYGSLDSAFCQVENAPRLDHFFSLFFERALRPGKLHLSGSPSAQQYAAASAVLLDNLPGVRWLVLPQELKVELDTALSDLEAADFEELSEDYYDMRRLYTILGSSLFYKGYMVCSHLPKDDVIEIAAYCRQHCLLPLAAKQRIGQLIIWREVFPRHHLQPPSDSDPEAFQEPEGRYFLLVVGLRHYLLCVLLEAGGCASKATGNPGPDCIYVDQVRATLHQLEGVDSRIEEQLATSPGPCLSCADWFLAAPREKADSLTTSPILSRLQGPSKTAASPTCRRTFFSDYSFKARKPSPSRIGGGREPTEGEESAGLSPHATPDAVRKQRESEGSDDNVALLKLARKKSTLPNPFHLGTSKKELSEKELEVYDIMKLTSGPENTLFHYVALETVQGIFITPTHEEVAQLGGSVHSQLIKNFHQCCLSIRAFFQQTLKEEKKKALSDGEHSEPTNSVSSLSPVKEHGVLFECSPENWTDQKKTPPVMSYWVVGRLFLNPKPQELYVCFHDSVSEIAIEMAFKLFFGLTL

B1: Intu-mycDDK (protein, UniProt Q059U7 1-942)
chain: T1 sequence

Legend:
CBP-SBP-Intu (mouse) = molecular target: T1, CBP-SBP-Intu (mouse); test: pull-down; STV-pulldown from lysate of 293FT cells transfected with CBP-SBP-Intu, cells untreated or treated with IFN-γ, azide or cisplatin; immunoblot
[1] = molecular target: STAT1 (human (endogenous in 293FT)) (UniProt P42224); test: co-IP; lysate of 293FT cells transfected with Intu-mycDDK; immunoprecipitation with anti-STAT1 antibody or non-immune IgG and agarose beads, 2 h at 4 °C; blot for STAT1 and myc

Molecule | binding (CBP-SBP-Intu (mouse)) | binding [1]
STAT1 (from UniProt P42224 1-750) | binds | 
B1 |  | binds
